Here are results for 1 sequence from PMC12025066.

The chains behind the UniProt entries cited, without tags or fusion partners. Residues count along the entry.
UniProt P16422, 24-314: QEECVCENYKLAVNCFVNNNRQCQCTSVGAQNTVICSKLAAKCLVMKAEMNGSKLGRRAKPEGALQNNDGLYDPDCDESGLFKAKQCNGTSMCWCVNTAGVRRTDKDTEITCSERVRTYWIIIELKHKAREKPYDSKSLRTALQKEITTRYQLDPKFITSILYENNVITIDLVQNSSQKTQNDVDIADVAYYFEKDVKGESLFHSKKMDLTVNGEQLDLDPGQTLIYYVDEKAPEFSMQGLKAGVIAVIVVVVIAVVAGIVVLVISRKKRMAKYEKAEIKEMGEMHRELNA

Construct, isoform or probe ends are uncertain for at least one entry. Where cells or extracts were used, other partners may take part. At least one verdict was read from the data and is not stated in words by the source.

For this data set, the target named is EpCAM on SW480 colon cancer-derived exosomes (UniProt P16422). Nature of the data set: graphene field-effect transistor (Dirac point shift). The note with it: SW480 exosomes in PBS, 8.5 to 3.63e8 particles/mL (exponent printed as 108), LOD 112 particles/mL is not an affinity; 5'-NH2; covalently attached to polydopamine film on graphene and gate; Exosomes diluted in PBS, about 10 min detection; salt and temperature not stated; protein on the cell surface; single-stranded DNA.

“CACTACAGAGGTTGCGTCTGTCCCACGTTGTCATGGGGGGTTGGCCTG [EpCAM aptamer]”: the binding result is on record as “binds”.
